According to the supplement of paper PMC6411743:
± gives the standard deviation of the averaged measurements. The entries are a selection whose mix differs from that of the whole data set. Small differences around the control level are noise.

Amino acid sequences for entries named in this document (tags omitted). A change or cut given only in a name is not applied to a line headed by its entry.
UniProt Q86U06: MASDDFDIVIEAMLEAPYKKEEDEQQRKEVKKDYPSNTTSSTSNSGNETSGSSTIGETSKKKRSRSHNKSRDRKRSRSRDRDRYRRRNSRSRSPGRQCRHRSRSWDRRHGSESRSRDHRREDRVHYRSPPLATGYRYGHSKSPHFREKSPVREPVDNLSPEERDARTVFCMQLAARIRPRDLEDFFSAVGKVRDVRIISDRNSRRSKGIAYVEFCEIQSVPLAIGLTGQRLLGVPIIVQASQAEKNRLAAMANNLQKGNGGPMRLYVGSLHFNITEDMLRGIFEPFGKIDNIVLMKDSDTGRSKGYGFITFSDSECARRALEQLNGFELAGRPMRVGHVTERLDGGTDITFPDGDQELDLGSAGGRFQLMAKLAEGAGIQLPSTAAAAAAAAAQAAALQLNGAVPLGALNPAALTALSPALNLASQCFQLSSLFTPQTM
UniProt Q6PI48: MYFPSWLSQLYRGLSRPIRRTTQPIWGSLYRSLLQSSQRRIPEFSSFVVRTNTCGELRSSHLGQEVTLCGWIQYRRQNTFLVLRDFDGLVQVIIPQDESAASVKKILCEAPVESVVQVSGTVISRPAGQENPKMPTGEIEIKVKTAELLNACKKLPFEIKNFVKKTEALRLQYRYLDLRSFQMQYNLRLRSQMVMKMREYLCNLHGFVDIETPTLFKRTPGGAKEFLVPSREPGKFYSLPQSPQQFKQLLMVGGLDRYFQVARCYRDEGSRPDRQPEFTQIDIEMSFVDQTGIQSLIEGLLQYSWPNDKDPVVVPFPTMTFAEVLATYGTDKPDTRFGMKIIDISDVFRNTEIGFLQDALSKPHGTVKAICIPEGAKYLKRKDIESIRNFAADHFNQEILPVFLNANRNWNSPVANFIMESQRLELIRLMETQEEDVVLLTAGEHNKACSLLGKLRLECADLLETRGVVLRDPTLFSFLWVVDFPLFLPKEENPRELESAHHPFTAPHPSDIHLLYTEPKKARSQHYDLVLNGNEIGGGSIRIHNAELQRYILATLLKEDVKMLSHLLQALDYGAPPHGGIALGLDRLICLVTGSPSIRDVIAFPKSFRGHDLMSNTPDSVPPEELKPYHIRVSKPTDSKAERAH
UniProt Q86X83, whole entry: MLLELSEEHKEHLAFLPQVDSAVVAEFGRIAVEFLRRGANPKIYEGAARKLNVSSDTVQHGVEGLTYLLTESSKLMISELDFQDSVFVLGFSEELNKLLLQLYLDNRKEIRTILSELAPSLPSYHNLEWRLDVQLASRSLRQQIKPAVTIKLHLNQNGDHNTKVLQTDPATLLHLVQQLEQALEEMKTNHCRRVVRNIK
UniProt Q86XK3: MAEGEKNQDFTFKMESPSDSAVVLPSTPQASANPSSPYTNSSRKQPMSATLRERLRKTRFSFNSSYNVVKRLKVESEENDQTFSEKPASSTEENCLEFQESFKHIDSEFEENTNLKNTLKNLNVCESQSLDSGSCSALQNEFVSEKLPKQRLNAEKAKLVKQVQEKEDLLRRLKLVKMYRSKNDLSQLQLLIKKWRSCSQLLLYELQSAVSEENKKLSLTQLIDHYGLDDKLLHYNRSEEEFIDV
UniProt Q86VR2, whole entry: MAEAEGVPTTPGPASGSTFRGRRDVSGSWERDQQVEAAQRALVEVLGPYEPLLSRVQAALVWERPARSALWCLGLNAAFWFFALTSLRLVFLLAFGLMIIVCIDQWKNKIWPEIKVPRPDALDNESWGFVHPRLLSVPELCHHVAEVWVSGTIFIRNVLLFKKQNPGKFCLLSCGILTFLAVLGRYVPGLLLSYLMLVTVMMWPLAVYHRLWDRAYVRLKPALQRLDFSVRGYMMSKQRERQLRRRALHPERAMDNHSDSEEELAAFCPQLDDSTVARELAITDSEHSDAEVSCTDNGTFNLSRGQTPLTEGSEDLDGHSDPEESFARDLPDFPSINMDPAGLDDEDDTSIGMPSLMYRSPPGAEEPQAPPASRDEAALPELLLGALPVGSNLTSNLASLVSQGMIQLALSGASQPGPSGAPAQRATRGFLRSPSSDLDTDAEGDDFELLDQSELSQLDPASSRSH
UniProt Q86Y56: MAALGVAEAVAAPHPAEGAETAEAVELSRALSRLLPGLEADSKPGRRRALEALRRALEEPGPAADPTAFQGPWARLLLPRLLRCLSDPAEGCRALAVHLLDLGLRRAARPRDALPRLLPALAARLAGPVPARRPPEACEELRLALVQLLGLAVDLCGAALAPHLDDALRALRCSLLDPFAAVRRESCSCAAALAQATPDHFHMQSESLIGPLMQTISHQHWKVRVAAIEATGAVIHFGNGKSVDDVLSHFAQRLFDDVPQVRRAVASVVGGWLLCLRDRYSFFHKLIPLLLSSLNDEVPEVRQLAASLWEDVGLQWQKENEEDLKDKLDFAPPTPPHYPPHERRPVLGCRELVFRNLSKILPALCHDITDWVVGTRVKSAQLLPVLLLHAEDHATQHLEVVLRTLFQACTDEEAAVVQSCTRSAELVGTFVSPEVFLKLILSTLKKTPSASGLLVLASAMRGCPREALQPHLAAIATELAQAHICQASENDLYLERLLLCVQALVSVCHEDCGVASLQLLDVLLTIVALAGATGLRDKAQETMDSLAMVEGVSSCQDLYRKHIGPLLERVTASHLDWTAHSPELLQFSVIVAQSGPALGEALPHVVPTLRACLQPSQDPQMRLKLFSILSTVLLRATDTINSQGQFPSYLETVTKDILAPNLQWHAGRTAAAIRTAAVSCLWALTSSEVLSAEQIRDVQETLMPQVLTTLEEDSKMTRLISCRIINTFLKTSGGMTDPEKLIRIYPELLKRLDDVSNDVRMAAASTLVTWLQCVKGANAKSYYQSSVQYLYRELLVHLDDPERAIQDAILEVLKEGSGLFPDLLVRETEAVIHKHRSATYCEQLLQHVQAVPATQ
UniProt Q6Y7W6: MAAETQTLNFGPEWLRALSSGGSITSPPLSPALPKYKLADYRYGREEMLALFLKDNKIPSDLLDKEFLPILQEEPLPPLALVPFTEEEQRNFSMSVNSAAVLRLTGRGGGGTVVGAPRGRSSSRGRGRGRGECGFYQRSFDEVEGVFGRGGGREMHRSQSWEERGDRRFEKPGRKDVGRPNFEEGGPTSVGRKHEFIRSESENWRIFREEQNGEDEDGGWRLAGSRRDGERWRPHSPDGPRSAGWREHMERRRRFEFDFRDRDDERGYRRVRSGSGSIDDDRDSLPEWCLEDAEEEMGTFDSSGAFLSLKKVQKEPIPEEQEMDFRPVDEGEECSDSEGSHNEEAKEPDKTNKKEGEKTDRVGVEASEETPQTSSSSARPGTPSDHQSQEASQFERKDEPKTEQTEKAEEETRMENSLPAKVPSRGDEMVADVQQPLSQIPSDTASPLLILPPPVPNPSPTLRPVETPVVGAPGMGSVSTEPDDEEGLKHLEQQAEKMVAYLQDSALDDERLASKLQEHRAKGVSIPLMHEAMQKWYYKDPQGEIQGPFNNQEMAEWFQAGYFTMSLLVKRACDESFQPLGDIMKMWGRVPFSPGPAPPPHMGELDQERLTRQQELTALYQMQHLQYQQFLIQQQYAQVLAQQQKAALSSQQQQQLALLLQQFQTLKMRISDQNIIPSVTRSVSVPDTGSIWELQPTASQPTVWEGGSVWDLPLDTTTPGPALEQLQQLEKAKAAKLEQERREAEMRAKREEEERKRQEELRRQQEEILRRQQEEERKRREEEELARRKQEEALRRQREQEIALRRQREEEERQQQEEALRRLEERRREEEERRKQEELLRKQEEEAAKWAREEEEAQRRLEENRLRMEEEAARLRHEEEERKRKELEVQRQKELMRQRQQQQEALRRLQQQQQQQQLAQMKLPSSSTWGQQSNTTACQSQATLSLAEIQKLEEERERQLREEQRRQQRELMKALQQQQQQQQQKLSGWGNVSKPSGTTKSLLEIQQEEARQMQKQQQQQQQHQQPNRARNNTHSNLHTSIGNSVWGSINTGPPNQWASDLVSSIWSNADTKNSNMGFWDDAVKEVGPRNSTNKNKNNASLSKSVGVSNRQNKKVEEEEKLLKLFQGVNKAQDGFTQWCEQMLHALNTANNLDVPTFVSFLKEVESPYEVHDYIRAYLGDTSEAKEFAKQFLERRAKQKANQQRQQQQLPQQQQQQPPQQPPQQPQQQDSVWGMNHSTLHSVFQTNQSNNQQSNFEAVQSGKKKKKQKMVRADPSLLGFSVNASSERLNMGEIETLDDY
UniProt Q6PL18: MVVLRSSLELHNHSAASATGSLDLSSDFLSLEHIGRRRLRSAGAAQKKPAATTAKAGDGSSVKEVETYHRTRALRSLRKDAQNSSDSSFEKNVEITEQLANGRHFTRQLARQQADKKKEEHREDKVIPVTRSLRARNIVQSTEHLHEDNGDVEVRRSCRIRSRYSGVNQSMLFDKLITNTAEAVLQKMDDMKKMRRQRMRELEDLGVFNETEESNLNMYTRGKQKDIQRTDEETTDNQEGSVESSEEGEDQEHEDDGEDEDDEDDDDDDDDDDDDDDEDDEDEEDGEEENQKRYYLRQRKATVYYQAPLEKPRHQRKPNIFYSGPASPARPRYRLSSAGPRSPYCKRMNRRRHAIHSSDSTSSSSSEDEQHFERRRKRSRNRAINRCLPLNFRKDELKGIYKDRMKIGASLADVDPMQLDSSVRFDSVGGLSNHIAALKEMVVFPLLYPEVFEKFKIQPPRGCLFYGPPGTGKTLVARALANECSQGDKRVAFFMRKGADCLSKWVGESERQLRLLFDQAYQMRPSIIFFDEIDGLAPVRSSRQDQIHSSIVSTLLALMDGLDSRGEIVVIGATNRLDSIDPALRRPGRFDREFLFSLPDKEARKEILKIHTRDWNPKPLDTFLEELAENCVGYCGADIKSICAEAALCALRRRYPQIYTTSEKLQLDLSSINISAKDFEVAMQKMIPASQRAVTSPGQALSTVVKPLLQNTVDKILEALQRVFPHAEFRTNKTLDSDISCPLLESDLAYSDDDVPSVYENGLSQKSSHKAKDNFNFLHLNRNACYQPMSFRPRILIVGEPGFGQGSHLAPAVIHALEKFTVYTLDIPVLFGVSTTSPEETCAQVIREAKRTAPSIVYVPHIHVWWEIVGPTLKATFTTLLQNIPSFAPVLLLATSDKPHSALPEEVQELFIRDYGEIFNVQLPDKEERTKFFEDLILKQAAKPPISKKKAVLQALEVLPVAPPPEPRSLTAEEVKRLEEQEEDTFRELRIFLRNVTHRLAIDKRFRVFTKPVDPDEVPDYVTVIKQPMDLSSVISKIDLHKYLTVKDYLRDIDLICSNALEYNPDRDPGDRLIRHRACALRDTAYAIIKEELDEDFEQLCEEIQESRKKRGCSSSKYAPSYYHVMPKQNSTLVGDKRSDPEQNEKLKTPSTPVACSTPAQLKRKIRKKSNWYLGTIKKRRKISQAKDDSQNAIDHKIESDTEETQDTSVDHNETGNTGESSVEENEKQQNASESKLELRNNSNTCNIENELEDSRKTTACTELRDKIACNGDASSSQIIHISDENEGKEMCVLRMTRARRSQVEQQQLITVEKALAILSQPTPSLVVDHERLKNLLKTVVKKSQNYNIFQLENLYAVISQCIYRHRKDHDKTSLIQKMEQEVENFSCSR
UniProt Q7L590: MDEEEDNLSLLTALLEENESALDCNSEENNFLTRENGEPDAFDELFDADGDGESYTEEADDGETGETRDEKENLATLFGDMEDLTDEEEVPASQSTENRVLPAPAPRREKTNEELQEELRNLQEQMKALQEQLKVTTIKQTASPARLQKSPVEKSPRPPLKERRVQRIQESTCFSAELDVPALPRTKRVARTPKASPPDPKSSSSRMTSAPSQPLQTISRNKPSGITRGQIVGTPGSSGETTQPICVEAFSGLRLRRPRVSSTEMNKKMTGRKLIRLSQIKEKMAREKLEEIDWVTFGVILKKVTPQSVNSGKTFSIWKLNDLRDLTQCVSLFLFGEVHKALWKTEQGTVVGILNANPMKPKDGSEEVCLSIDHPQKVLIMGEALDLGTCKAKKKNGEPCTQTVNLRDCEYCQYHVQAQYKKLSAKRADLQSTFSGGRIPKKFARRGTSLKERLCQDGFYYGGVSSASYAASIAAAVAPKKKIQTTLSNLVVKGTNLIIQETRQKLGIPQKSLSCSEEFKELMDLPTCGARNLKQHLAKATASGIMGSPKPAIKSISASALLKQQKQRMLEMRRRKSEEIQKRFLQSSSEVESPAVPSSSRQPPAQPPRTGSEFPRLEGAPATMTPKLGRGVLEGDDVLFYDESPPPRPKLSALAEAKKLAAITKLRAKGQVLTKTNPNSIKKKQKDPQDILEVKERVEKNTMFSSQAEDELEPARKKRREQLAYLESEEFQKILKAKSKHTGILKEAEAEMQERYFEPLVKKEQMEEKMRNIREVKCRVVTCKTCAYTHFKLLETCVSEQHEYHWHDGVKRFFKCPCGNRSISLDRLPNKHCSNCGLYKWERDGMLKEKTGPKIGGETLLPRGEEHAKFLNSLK

Compound: Nc1ncnc2c1ncn2[C@@H]1O[C@H](COP(=O)(O)OP(=O)(O)OP(=O)(O)O)[C@@H](O)[C@H]1O [adenosine triphosphate]
Test: NP40-soluble protein abundance relative to vehicle (solubility fold change) (ratio); higher = more soluble protein in presence of ATP
Outline: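 Eight concentrations, 0.1 to 10 mM, were tested on Jurkat crude lysate for 10 min at room temperature and then 3 min at 37 °C, in three independent experiments. The lysate was solubilised with 0.8% NP40 and benzonase, ultracentrifuged, and the supernatant TMT-labelled for LC-MS/MS. Each value is the fold change against the detergent-processed vehicle in its own replicate, from vsn-normalised intensities.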

Target	NP40-soluble protein abundance (concentration: 0.1mM)	NP40-soluble protein abundance (concentration: 0.5mM)	NP40-soluble protein abundance (concentration: 1mM)	NP40-soluble protein abundance (concentration: 2mM)	NP40-soluble protein abundance (concentration: 4mM)	NP40-soluble protein abundance (concentration: 6mM)	NP40-soluble protein abundance (concentration: 8mM)	NP40-soluble protein abundance (concentration: 10mM)
UniProt Q86U06 and related entries	1.2 ± 0.17	1.29 ± 0.47	1.5 ± 0.41	1.53 ± 0.31	1.48 ± 0.33	1.76 ± 0.46	1.56 ± 0.41	1.46 ± 0.49
LARP1 (UniProt Q6PKG0)	0.93 ± 0.054	0.898 ± 0.038	0.939 ± 0.062	0.988 ± 0.065	1.06 ± 0.059	1.2 ± 0.069	1.22 ± 0.043	1.33 ± 0.065
UniProt Q7Z5K2 and related entries	1.03 ± 0.051	1.04 ± 0.064	1.02 ± 0.011	0.995 ± 0.018	0.993 ± 0.011	1.01 ± 0.026	1.014 ± 0.0065	0.987 ± 0.029
UniProt Q86UY6	1.09 ± 0.042	1.36 ± 0.035	1.39 ± 0.18	1.46 ± 0.14	1.56 ± 0.21	1.66 ± 0.26	1.69 ± 0.21	1.69 ± 0.15
GLCCI1 (UniProt Q86VQ1)	0.976 ± 0.076	0.953 ± 0.11	–	–	–	–	–	–
ZDHHC17 (UniProt Q8IUH5)	1.1 ± 0.041	1.08 ± 0.073	1.08 ± 0.056	0.997 ± 0.021	1.11 ± 0.082	1.02 ± 0.058	1.09 ± 0.063	1.08 ± 0.033
DARS2 (UniProt Q6PI48)	1.06 ± 0.041	1.02 ± 0.062	–	–	–	–	–	–
UniProt Q86Y01	0.891 ± 0.057	0.9203 ± 0.0011	0.964 ± 0.033	1.05 ± 0.022	1.12 ± 0.065	1.05 ± 0.088	1.09 ± 0.012	1.15 ± 0.1
TAOK1 (UniProt Q7L7X3)	1.019 ± 0.0021	1.03 ± 0.022	–	–	–	–	–	–
USP34 (UniProt Q70CQ2)	1.05 ± 0.033	1.03 ± 0.058	–	–	–	–	–	–
UniProt Q6ZXV5 and related entries	0.937 ± 0.1	0.945 ± 0.08	–	–	–	–	–	–
YRDC (UniProt Q86U90)	0.961 ± 0.022	0.925 ± 0.027	0.928 ± 0.045	0.959 ± 0.05	0.93 ± 0.028	0.885 ± 0.043	0.896 ± 0.01	0.932 ± 0.017
UniProt Q7Z3D6-2|H0YB09 and related entries	1.04 ± 0.053	1.05 ± 0.077	–	–	–	–	–	–
UniProt Q86X83 and related entries	1.03 ± 0.034	1 ± 0.036	1.01 ± 0.038	0.975 ± 0.011	0.963 ± 0.024	0.927 ± 0.022	0.956 ± 0.048	0.971 ± 0.021
UniProt Q86XK3 and related entries	1.15 ± 0.098	1.09 ± 0.11	–	–	–	–	–	–
UniProt Q86VR2	0.95 ± 0.05	0.95 ± 0.071	0.91 ± 0.084	0.941 ± 0.088	0.925 ± 0.11	0.869 ± 0.037	0.906 ± 0.064	0.943 ± 0.052
UniProt Q7KZN9 and related entries	1.01 ± 0.16	1.03 ± 0.18	–	–	–	–	–	–
UniProt Q86Y56	1 ± 0.073	0.998 ± 0.027	0.992 ± 0.076	0.985 ± 0.067	0.954 ± 0.036	0.917 ± 0.082	0.937 ± 0.046	0.976 ± 0.052
UniProt Q86UT6 and related entries	1.17 ± 0.024	1.09 ± 0.0094	1.03 ± 0.027	1.081 ± 0.0018	0.99 ± 0.06	1.01 ± 0.18	1.02 ± 0.14	1.03 ± 0.12
UniProt Q6Y7W6 and related entries	0.994 ± 0.023	1.05 ± 0.051	1.05 ± 0.076	1.08 ± 0.05	1.1 ± 0.051	1.18 ± 0.068	1.12 ± 0.029	1.16 ± 0.045
ATAD2 (UniProt Q6PL18)	1.07 ± 0.041	1.24 ± 0.065	–	–	–	–	–	–
UniProt Q7Z4G4 and related entries	1.07 ± 0.17	1.06 ± 0.097	–	–	–	–	–	–
UniProt Q7L590 and related entries	0.974 ± 0.031	1.01 ± 0.063	1.01 ± 0.11	1.07 ± 0.059	1.13 ± 0.044	1.01 ± 0.057	1.11 ± 0.12	1.14 ± 0.12

Part of the list above, as comma-separated lines.
Target,NP40-soluble protein abundance (concentration: 0.1mM),NP40-soluble protein abundance (concentration: 0.5mM),NP40-soluble protein abundance (concentration: 1mM),NP40-soluble protein abundance (concentration: 2mM),NP40-soluble protein abundance (concentration: 4mM),NP40-soluble protein abundance (concentration: 6mM),NP40-soluble protein abundance (concentration: 8mM),NP40-soluble protein abundance (concentration: 10mM)
UniProt Q86UY6,1.09 ± 0.042,1.36 ± 0.035,1.39 ± 0.18,1.46 ± 0.14,1.56 ± 0.21,1.66 ± 0.26,1.69 ± 0.21,1.69 ± 0.15
UniProt Q6Y7W6 and related entries,0.994 ± 0.023,1.05 ± 0.051,1.05 ± 0.076,1.08 ± 0.05,1.1 ± 0.051,1.18 ± 0.068,1.12 ± 0.029,1.16 ± 0.045
